Results taken from PubChem BioAssay (EPA / NIEHS).
The inconclusive results got no clear call from the source; some entries with a clear call stand among them for comparison. Where the call is inconclusive, the potency comes from a doubtful curve fit. Active and inactive are the calls of the source. The calls were made as follows: active = hit-call score of the fitted dose curve at least 0.9, where 1 is the maximum; inconclusive = response in the unintended direction; inactive = score below 0.9.

By UniProt entry, the sequences of proteins in these tests, tags left out. Where a name states a change or a piece, a line headed by the entry shows the natural chain unless it says otherwise.
UniProt P10275: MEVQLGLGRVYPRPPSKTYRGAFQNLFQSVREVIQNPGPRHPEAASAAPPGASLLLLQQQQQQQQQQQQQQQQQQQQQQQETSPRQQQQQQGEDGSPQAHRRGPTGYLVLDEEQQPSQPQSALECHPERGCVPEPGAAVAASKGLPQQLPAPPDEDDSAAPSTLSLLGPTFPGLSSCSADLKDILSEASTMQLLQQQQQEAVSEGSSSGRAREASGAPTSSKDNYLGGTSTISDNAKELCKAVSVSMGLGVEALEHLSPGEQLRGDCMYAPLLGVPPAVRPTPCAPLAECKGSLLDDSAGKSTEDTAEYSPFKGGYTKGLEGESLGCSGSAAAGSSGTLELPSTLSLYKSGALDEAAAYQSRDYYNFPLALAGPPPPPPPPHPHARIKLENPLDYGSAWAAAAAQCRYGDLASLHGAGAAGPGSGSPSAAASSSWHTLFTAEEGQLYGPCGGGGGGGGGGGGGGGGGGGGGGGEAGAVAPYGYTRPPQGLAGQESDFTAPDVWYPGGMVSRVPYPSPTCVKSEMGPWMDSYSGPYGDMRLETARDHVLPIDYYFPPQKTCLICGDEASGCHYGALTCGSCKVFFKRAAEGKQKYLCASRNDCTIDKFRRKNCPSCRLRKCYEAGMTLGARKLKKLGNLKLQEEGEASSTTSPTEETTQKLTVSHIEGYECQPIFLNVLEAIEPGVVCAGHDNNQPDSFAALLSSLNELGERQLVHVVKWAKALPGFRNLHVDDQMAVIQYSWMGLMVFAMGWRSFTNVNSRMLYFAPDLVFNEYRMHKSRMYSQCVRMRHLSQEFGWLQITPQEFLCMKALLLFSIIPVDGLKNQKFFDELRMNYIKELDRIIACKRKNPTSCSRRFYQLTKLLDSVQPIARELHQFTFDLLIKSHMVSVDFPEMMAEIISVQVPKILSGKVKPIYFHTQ

biological target: Ratio of Nucleoli Translocation and Cytoplasm, AR (gene 367) (UniProt P10275); assay: UPITT_HCI_U2OS_AR_TIF2_Nucleoli_Cytoplasm_Ratio_Agonist: University of Pittsburgh U2OS Androgen Receptor-Transcriptional Intermediary Factor 2 (AR-TIF2) Agonism High Content Imaging Assay for Ratio of Nucleoli Translocation and Cytoplasm (AID 2284000);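 also: hits raise the red nucleolar to cytoplasm ratio above vehicle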
Source text: UPITT_AR_TIF2_PPIB is a cell-based, high-content imaging assay that uses U2OS, a human osteosarcoma cell line, expressing a human androgen receptor fused to red fluorescent protein and the coactivator TIF2 fused to green fluorescent protein. UPITT_HCI_U2OS_AR_TIF2_Nucleoli_Cytoplasm_Ratio_Agonist is one of four assay components measured from the UPITT_AR_TIF2_PPIB assay. It is designed to make measurements of the ratio of red fluorescence localized in the nucleolar region of the cell nucleus to red fluorescence localized in the cytoplasm as detected with high-content fluorescent imaging.Data from the assay component UPITT_HCI_U2OS_AR_TIF2_Nucleoli_Cytoplasm_Ratio_Agonist was analyzed into 1 assay endpoint. This assay endpoint, UPITT_HCI_U2OS_AR_TIF2_Nucleoli_Cytoplasm_Ratio_Agonist, was analyzed in the positive analysis fitting direction relative to DMSO as the baseline of activity. Using a type of binding reporter, measures of receptor for gain-of-signal activity can be used to understand the binding at the pathway-level as it relates to the gene AR.
Daughter plates containing 2 uL of 10 mM compounds in DMSO were prepared and replicated from the 384-well Library of Pharmacologically Active Compounds (LOPAC) master plates using the Bravo outfitted with a 384-well transfer head. Aluminum adhesive plate seals were applied with an Abgene Seal-IT 100 (Rochester, NY) plate sealer, and the plates were stored at -20 C in a Matrical MatriMinistore (Spokane, WA) automated compound storage and retrieval system. For screening, LOPAC daughter plates were withdrawn from -20C storage, thawed to ambient temperature, centrifuged 1-2 min at 50 g, and the plate seals were removed before the transfer of 98 uL of serum-free tissue culture medium (SFM) into wells using the BioTek Microflo liquid handler (BioTek, Winooski, VT) to generate a 200 uM intermediate stock concentration of library compounds (2.0% DMSO). The diluted compounds were mixed by repeated aspiration and dispensation using a 384-well P30 dispensing head on the Evolution P3 (EP3) liquid handling platform (PerkinElmer, Waltham, MA) and then 5 uL of diluted compounds was transferred to the wells of assay plates. In the LOPAC screen, compounds were individually tested at a final concentration of 20 uM (0.2% DMSO). After the diluted compounds had been transferred from the daughter plates to the primary HCS assay plates, aluminum adhesive plate seals were applied and the diluted daughter plates were stored frozen at -20C. To confirm active compounds identified in the primary screen, we withdrew the LOPAC daughter plates containing the 200 uM intermediate concentration of library compounds (2.0% DMSO) from -20C storage, thawed them to ambient temperature, centrifuged them for 1-2 min at 50 g, and removed the plate seals. A work list was generated to direct the Multiprobe Janus liquid handling platform (PerkinElmer) to cherry pick 75 uL from the wells of the diluted daughter plates that were flagged active in the primary screen and to reformat these into a 384-well plate hit confirmation daughter plate. Five microliters of primary HCS active compounds was then transferred into triplicate wells of assay plates using a 384-well P30 dispensing head on the Evolution P3 (EP3) liquid handling platform (PerkinElmer). […] Daughter plates containing 2 uL of the serially diluted compounds in DMSO were prepared and replicated from the 384-well serial dilution master plates using the Bravo outfitted with a 384-well transfer head. Aluminum adhesive plate seals were applied and plates were stored at -20C. For testing in the bioassays, daughter plates were withdrawn from -20C storage, thawed to ambient temperature, centrifuged for 1-2 min at 50 g, and the plate seals were removed before the transfer of 38 uL of SFM into wells using the BioTek Microflo liquid handler (BioTek) to generate an intermediate stock concentration of library compounds ranging from 1.95 to 500 uM (5.0% DMSO). […]

outcome, inactive:
CCO[Si](CC)(OCC)OCC
COc1cc(C(C)C)c2c(c1)S(=O)(=O)N(COc1cc(=O)n3cccc(OCCN4CCCCC4)c3n1)C2=O
NC(=O)N1C(=O)C(C(=O)c2cc(Cl)cs2)c2cc(F)c(Cl)cc21 (configuration not stated)
C#CC(O)C(CC)CCCC (configuration not stated)
CCCCCCCCCCOC(=O)c1ccccc1C(=O)OCCCCCCCC
CCCCCCCCCCCCCC(=O)OCC(O)CO (configuration not stated)
CC(=O)C1(C)CC2=C(CCCC2(C)C)CC1C (configuration not stated)
CCCCC(CC)COC(=O)/C=C\C(=O)OCC(CC)CCCC (configuration not stated)
CCN=C1C=CC(=C(c2ccc(N(CC)CC)cc2)c2ccc(N(CC)CC)cc2)c2ccccc21
Cc1ccc(O)cc1
CCCCCCCCSCCO

AC50, inconclusive:
CC1CCC(C(C)C)C(O)C1 (configuration not stated) 50 µM
CC1COCc2cc3c(cc21)C(C)(C)C(C)C3(C)C (configuration not stated) 50 µM
CCCN(C1CCN(C(=O)C2CCNCC2)CC1)[C@@H]1CCc2ccc(OC)cc2C1 50 µM
CCc1ccc(O)cc1 50.5 µM
Cc1c(C(=O)c2c[nH]n(C)c2=O)ccc(S(C)(=O)=O)c1C1=NOCC1 21.4 µM
CC(=O)Nc1ccc(O)cc1 50 µM
OCc1ccccc1 50 µM
CNC(=S)NC 50 µM
OCC1CCCO1 (configuration not stated) 50 µM
Cc1cccc(C)c1O 50 µM
CCOC(=O)C(C)Oc1ccc(Oc2nc3ccc(Cl)cc3o2)cc1 (configuration not stated) 50 µM
COC(=O)c1cccc(C(=O)OC)c1 50 µM
C=CCCCCCCCCCCCC 50 µM
COc1cc(OC)c2ccc(=O)oc2c1 50 µM
CC(=O)O[C@H]1C[C@@H]2CC[C@@]1(C)C2(C)C 50 µM
CC(=O)O[C@@H]1CC2CCC1(C)C2(C)C (some centres not stated) 50 µM
CCc1ccc(C)nc1 50 µM
Fc1ccccc1[C@@H](F)COC1CCC(Nc2ncnc3[nH]ncc23)CC1 (some centres not stated) 50 µM
COc1ccc(C)cc1N 50 µM

A draw from above in order of heavy-atom count, largest number first.
AC50, inconclusive:
CC(=O)Nc1ccc(O)cc1 50 µM
OCc1ccccc1 50 µM
OCC1CCCO1 (configuration not stated) 50 µM

Following part.

AC50, active:
CCCCCCCCCCCCc1ccccc1S(=O)(=O)O 90.9 µM
O=C1OC(c2ccc(O)cc2)(c2ccc(O)cc2)c2ccccc21 77 µM
CCCOc1sc(C(=O)N2CCC(c3cc(CN)ccc3F)CC2)c(C)c1Br 8.47 µM
CCCCCCc1ccc(O)cc1O 14.8 µM
Cc1cc(F)ccc1-c1cc(N2CC[C@@H](O)[C@H]2CO)ncc1N(C)C(=O)C(C)(C)c1cc(C(F)(F)F)cc(C(F)(F)F)c1 60.4 µM
CCN(CC)C(=S)SSC(=S)N(CC)CC 64.4 µM
CCCCCCOc1ccc(O)cc1 23.9 µM
